Data as given in US7398119B2, “Assessing blood brain barrier dynamics or identifying or measuring selected substances, including ethanol or toxins, in a subject by analyzing Raman spectrum signals” (Childrens Hospital Los Angeles, priority 1998, dated 2008).

Assay: Resonant Raman (RR) spectroscopy detection at 406.7 nm excitation

Structure (SMILES) | lowest concentration at which the peaks 1171/cm and 1576/cm can be detected (in ethanol, excitation about 406.7 nm) | lowest concentration at which characteristic peaks can be detected (in MeOH, excitation 406 nm)
CC1=C(/C=C/C(C)=C/C=C/C(C)=C/C(=O)Nc2ccc(O)cc2)C(C)(C)CCC1 [fenretinide] | 0.1 µmol | 
C[C@@H]1[C@H](O)[C@@H](C)/C=C/C=C/C=C/C=C/C=C/C=C/C=C/[C@H](O[C@@H]2O[C@H](C)[C@@H](O)[C@H](N)[C@@H]2O)C[C@@H]2O[C@](O)(C[C@@H](O)C[C@@H](O)[C@H](O)CC[C@@H](O)C[C@@H](O)CC(=O)O[C@H]1C)C[C@H](O)[C@H]2C(=O)O [amphotericin, amphotericin B] |  | 0.05 micrograms/ml
